Consider two molecules from article doi:10.1101/2025.07.01.662558 (bioRxiv, 2025).

The target of test [1] is T1, TilSSoL340P, fused to the T18 domain of B. pertussis adenylate cyclase (S. oneidensis) (UniProt Q8EGF9).
T1 sequence: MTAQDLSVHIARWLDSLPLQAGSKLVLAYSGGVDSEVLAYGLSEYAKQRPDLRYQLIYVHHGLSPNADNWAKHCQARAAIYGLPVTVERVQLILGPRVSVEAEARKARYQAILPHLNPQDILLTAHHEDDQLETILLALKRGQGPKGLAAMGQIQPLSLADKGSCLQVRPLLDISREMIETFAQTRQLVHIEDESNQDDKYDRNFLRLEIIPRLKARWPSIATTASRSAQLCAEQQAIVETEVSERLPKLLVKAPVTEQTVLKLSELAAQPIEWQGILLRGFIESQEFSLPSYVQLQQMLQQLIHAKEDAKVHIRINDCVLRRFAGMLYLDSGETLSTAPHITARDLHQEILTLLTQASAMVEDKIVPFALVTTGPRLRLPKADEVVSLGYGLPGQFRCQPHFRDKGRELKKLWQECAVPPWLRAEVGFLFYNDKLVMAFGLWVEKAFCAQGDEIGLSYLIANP
Kind of test: two-hybrid.

The target of test [2] is T2, TilS from E. coli (TilSEc), purified, with 6-His tag (E. coli) (UniProt P52097).
T2 sequence (chain, RED-tris-NTA 2nd generation dye (NanoTemper) on the 6-His tag): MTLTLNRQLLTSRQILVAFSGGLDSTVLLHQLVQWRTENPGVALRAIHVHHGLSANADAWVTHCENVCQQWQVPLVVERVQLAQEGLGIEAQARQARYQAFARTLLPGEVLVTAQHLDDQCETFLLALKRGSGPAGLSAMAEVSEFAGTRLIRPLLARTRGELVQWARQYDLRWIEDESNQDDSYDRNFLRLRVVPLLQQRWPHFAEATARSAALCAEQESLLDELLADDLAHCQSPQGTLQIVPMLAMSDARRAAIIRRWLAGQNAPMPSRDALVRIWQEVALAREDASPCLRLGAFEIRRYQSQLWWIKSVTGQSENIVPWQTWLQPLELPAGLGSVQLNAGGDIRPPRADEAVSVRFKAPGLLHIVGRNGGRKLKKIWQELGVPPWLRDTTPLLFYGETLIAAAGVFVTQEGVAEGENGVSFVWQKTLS
The test can be described thus: MST.

Results are given in words; binding and its absence hold for the method and conditions named. Some entries that bind do so weakly or less than the wild type. Where a sequence is shown, tags or fusion partners need not be part of it.

B1: Hsp90 from S. oneidensis (Hsp90So), fused to the T25 domain of B. pertussis adenylate cyclase (protein, UniProt Q8EFF7 1-637)
chain: MSQQETHGFQTEVKQLLHLMIHSLYSNKEIFLRELVSNAADAADKLRYLALTNDALYEGDGELRVRISADKEKGTVTIEDNGVGMTRDGVIEHLGTIAKSGTAEFFKNLSGEASKDSQLIGQFGVGFYSAFIVAKKVTVRTRAAGHKANEAVLWESEGEGSFTVETITKATRGTEITLHLRDDEKEFADDWRLRSIITKYSDHISIPVEMWQEGTPERDGPDGEKIPATEGYWKAMNKATALWMRNKSEITDEEYQEFYKHISHDYTDALLWSHNRVEGKQEYTNLLYIPSKAPWDLWNRDRKHGLKLFVQRVFIMDDAEQFMPSYLRFVQGLIDSNDLPLNVSREILQDNHITKAMRTGITKRVLGMLEKLAKDDAEKYQQFWAEFGQVLKEGPAEDFANRERIAGLLRFASTHTGSAAPTVSLDDYISRMKEGQTKIYYIVADSHEAAANSPHLELLRKKGIEVLLMSERIDEWLINHLTEYKEKQLHSVTRGELELGELEDAAEKEAQEKLAEESAPLIERIKAALGASVADVKVTSRLTDTPACVVTGEGEMSTQMIKLMQAAGQPVPEVKPTFEVNPAHPLVSRLNDLQDEAAFADWSNLLLQQAQLSEKGSLADPSAFIKLMNQMLLANLK
For the molecule B1, the binding result in test [1] is “binds”.

B2: Hsp90 from S. oneidensis (Hsp90So), purified, non-labeled (protein, UniProt Q8EFF7 1-637)
chain: MSQQETHGFQTEVKQLLHLMIHSLYSNKEIFLRELVSNAADAADKLRYLALTNDALYEGDGELRVRISADKEKGTVTIEDNGVGMTRDGVIEHLGTIAKSGTAEFFKNLSGEASKDSQLIGQFGVGFYSAFIVAKKVTVRTRAAGHKANEAVLWESEGEGSFTVETITKATRGTEITLHLRDDEKEFADDWRLRSIITKYSDHISIPVEMWQEGTPERDGPDGEKIPATEGYWKAMNKATALWMRNKSEITDEEYQEFYKHISHDYTDALLWSHNRVEGKQEYTNLLYIPSKAPWDLWNRDRKHGLKLFVQRVFIMDDAEQFMPSYLRFVQGLIDSNDLPLNVSREILQDNHITKAMRTGITKRVLGMLEKLAKDDAEKYQQFWAEFGQVLKEGPAEDFANRERIAGLLRFASTHTGSAAPTVSLDDYISRMKEGQTKIYYIVADSHEAAANSPHLELLRKKGIEVLLMSERIDEWLINHLTEYKEKQLHSVTRGELELGELEDAAEKEAQEKLAEESAPLIERIKAALGASVADVKVTSRLTDTPACVVTGEGEMSTQMIKLMQAAGQPVPEVKPTFEVNPAHPLVSRLNDLQDEAAFADWSNLLLQQAQLSEKGSLADPSAFIKLMNQMLLANLK
For the molecule B2, in test [2], the binding entry is on record as “no binding (tested: Hsp90So up to 50 µM)”.
